No constants are given. Whether binding was seen depends on the method and setting. Binding seen in cells or lysates may run through a third protein. Some results given as binding are weak or reduced against the parent protein; the word gives no strength.
Target: Sirtuin-6 (SIRT6), endogenous (human (endogenous in T24)) (UniProt Q8N6T7)
Test: co-IP; endogenous proteins, T24 cell lysate in 200 mM KCl, 20 mM Tris-HCl pH 7.9, 5 mM MgCl2, 10% glycerol, 0.2 mM EDTA, 0.1% NP-40; antibodies or control IgG overnight at 4 °C; western blot; both directions

Chains of the proteins cited; added tags and fusions are not shown.
UniProt Q8N6T7: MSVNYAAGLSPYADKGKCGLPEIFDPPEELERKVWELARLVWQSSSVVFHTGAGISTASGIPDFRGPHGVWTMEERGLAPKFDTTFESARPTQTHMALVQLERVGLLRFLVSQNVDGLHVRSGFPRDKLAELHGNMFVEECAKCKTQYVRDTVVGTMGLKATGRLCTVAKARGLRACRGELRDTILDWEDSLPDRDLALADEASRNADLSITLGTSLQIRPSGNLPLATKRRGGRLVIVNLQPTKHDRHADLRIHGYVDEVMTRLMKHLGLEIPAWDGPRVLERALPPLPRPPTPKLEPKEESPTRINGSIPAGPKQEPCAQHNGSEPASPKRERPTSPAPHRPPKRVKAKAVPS

- binding: binds
B1: UHRF1 (Ubiquitin-like, containing PHD and RING Finger domains 1), endogenous in T24 (protein, UniProt Q96T88 1-793)
chain: MWIQVRTMDGRQTHTVDSLSRLTKVEELRRKIQELFHVEPGLQRLFYRGKQMEDGHTLFDYEVRLNDTIQLLVRQSLVLPHSTKERDSELSDTDSGCCLGQSESDKSSTHGEAAAETDSRPADEDMWDETELGLYKVNEYVDARDTNMGAWFEAQVVRVTRKAPSRDEPCSSTSRPALEEDVIYHVKYDDYPENGVVQMNSRDVRARARTIIKWQDLEVGQVVMLNYNPDNPKERGFWYDAEISRKRETRTARELYANVVLGDDSLNDCRIIFVDEVFKIERPGEGSPMVDNPMRRKSGPSCKHCKDDVNRLCRVCACHLCGGRQDPDKQLMCDECDMAFHIYCLDPPLSSVPSEDEWYCPECRNDASEVVLAGERLRESKKKAKMASATSSSQRDWGKGMACVGRTKECTIVPSNHYGPIPGIPVGTMWRFRVQVSESGVHRPHVAGIHGRSNDGAYSLVLAGGYEDDVDHGNFFTYTGSGGRDLSGNKRTAEQSCDQKLTNTNRALALNCFAPINDQEGAEAKDWRSGKPVRVVRNVKGGKNSKYAPAEGNRYDGIYKVVKYWPEKGKSGFLVWRYLLRRDDDEPGPWTKEGKDRIKKLGLTMQYPEGYLEALANREREKENSKREEEEQQEGGFASPRTGKGKWKRKSAGGGPSRAGSPRRTSKKTKVEPYSLTAQQSSLIREDKSNAKLWNEVLASLKDRPASGSPFQLFLSKVEETFQCICCQELVFRPITTVCQHNVCKDCLDRSFRAQVFSCPACRYDLGRSYAMQVNQPLQTVLNQLFPGYGNGR

From article PMC11663349
